The list does not hold the whole screen: it gathers tests that were run many times, whatever their T/C, doses with no T/C, and many T/C values between a quarter and a half above the control. Other doses and runs of a compound stand elsewhere. T/C gives the treated animals as a percentage of the vehicle group. Some entries give survivors of the animals treated and no T/C: the source holds a T/C of zero for them, seemingly a mark for toxic or unscored doses. Some doses without a T/C left all or most animals alive at the check, yet need not have been tolerated: survival well below the control is almost never listed, so the zero probably covers shortened survival too. Survivors were counted at the toxicity check, usually on the fifth day, unless a day is given; later deaths do not show. Schedule codes are those of the source, taken here to give the interval after Q, in days (D) or hours (H), and the number of doses after X. Some structures stand for samples that the source files as different forms (salt, stereo form or complex); doses refer to the form tested. For survival time, this PubChem deposit counts one and a half times the control or more as active, and values a quarter to a half above the control carry no call in these data; other NCI protocols may use other cut-offs. Some entries hold several experiments; their values stand side by side, smallest first.
Test system: P388 leukemia ip, CD2F1 mice, survival T/C
Experiment: NCI In Vivo Anticancer Drug Screen. Data for tumor model P388 Leukemia (intraperitoneal) in CD2F1 (CDF1) mice
Conditions: T/C endpoint: median survival time, higher T/C = longer survival
[1] = dose: 100.0 mg/kg/injection, schedule: Q01DX009 (ip), vehicle: Klucel (hydroxypropylcellulose) (HPC)
[2] = dose: 200.0 mg/kg/injection, schedule: Q01DX009 (ip), vehicle: saline with Tween-80
[3] = dose: 400.0 mg/kg/injection, schedule: Q04DX003 (ip), vehicle: saline with Tween-80
[4] = dose: 240.0 mg/kg/injection, schedule: Q01DX005 (ip), vehicle: saline

For `CC(C)(CC#N)c1cc(CC(C)(C)c2cc(CC(C)(C)c3cc(CC(C)(C)C4(C)OCCO4)no3)no2)no1`, which survivor count (dose: 120.0 mg/kg/injection, schedule: Q01DX005 (ip), vehicle: saline with Tween-80) is on record?
The survivor count was 6 of 6.

Which results are given for `CCOS(=O)c1ccc(C)cc1` (centres undefined)?
survivor count [1]: 3 of 6; survivor count (dose: 200.0 mg/kg/injection, schedule: Q01DX009 (ip), vehicle: Klucel (hydroxypropylcellulose) (HPC)): 0 of 6

What does the source list for `CCOc1c(N=Nc2ccccc2O)c(C)nn1C(N)=S`?
survivor count (dose: 30.0 mg/kg/injection, schedule: Q01DX005 (ip), vehicle: Klucel (hydroxypropylcellulose) (HPC)): 0 of 6; survivor count (dose: 60.0 mg/kg/injection, schedule: Q01DX005 (ip), vehicle: Klucel (hydroxypropylcellulose) (HPC)): 0 of 6; survivor count (dose: 120.0 mg/kg/injection, schedule: Q01DX005 (ip), vehicle: Klucel (hydroxypropylcellulose) (HPC)): 0 of 6; survivor count (dose: 240.0 mg/kg/injection, schedule: Q01DX005 (ip), vehicle: Klucel (hydroxypropylcellulose) (HPC)): 0 of 6

How did the survivor count [2] turn out when `O=C(C[N+](=O)[O-])c1ccc(Cl)cc1` was run?
The survivor count was 1 of 6.

`N#CC(=C1C=CC(=NO)C=C1)c1ccc(Cl)cc1` was tested. Which T/C (dose: 266.0 mg/kg/injection, schedule: Q04DX003 (ip), vehicle: saline with Tween-80) did it give?
The T/C was 145 % of control.

What about the T/C [3] of the same compound?
The T/C was 130 and 135 % of control.

With `CC(O)c1cc2c(o1)C(=O)c1cccc(O)c1C2=O` (centres undefined) as the compound, how does the survivor count (dose: 75.0 mg/kg/injection, schedule: Q01DX005 (ip), vehicle: Klucel (hydroxypropylcellulose) (HPC)) read?
Its survivor count is 1 of 5.

What about the survivor count (dose: 150.0 mg/kg/injection, schedule: Q01DX005 (ip), vehicle: Klucel (hydroxypropylcellulose) (HPC)) of the same compound?
Its survivor count is 0 of 5.

`COc1cc2c(cc1OC)C1CC(=O)C(CC(C)C)CN1CC2` (centres undefined) was tested. Which survivor count [1] did it give?
Its survivor count is 0 of 6.

`O=[n+]1ccn([O-])c2ccccc21.[O-][Cl+3]([O-])([O-])O.[Zn+2]` was tested. Which survivor count (dose: 200.0 mg/kg/injection, schedule: Q04DX003 (ip), vehicle: saline with Tween-80) did it give?
Its survivor count is 0 of 6.

And the survivor count [3]?
The survivor count was 0 of 6.

For `C[N-]N(C)C(=O)[S-].C[N-]N(C)C(=O)[S-].C[N-]N(C)C(=O)[S-].[Co]`, which survivor count (dose: 100.0 mg/kg/injection, schedule: Q04DX003 (ip), vehicle: saline with Tween-80) is on record?
The survivor count was 5 of 6.

Which survivor count [4] does the source give for `CC(C)=CCCc1cc(-c2cc(CCC=C(C)C)nc(N)n2)nc(N)n1` here?
The survivor count was 0 of 6.

With `CN(C)CCSc1nc2ccccc2s1` as the compound, how does the survivor count [4] read?
Its survivor count is 2 of 6.

With `CC(Cl)CN1COc2ccc3ccc4c(c3c2C1)CN(CC(C)Cl)CO4` (centres undefined) as the compound, how does the T/C (dose: 200.0 mg/kg/injection, schedule: Q01DX005 (ip), vehicle: Klucel (hydroxypropylcellulose) (HPC)) read?
Its T/C is 126 % of control.

And the T/C (dose: 400.0 mg/kg/injection, schedule: Q01DX005 (ip), vehicle: Klucel (hydroxypropylcellulose) (HPC))?
The T/C was 139 % of control.

How did the survivor count (dose: 120.0 mg/kg/injection, schedule: Q01DX005 (ip), vehicle: saline) turn out when `CNC(C#N)C(C)F` (centres undefined) was run?
The survivor count was 2 of 6.

And the survivor count [4]?
Its survivor count is 0 of 6.

With `Cc1ccc2ccc(CC(O)(c3ccccc3)c3ccccc3)nc2c1` as the compound, how does the survivor count [2] read?
Its survivor count is 6 of 6.

For `O=C1c2ccccc2C(=O)N1CN1C(=O)c2ccccc2C1=O`, which survivor count (dose: 100.0 mg/kg/injection, schedule: Q01DX009 (ip), vehicle: saline with Tween-80) is on record?
Its survivor count is 3 of 6.

`N=C(N)SCCSC(=N)N` was tested. Which survivor count (dose: 100.0 mg/kg/injection, schedule: Q01DX009 (ip), vehicle: saline sonified) did it give?
The survivor count was 5 of 6.

And the survivor count (dose: 400.0 mg/kg/injection, schedule: Q04DX002 (ip), vehicle: saline)?
The survivor count was 0 of 6.

What does the source list for `COc1cc2c(cc1OC)C(CC1CCN3CCCCC3C1)NCC2` (centres undefined)?
survivor count (dose: 175.0 mg/kg/injection, schedule: Q04DX003 (ip), vehicle: saline): 2 of 6; survivor count (dose: 350.0 mg/kg/injection, schedule: Q04DX003 (ip), vehicle: saline): 0 of 6

`COC(=O)CN(CCCl)P1(=O)OCCCN1CCCl` (centres undefined) was tested. Which survivor count (dose: 240.0 mg/kg/injection, schedule: Q01DX005 (ip), vehicle: saline with Tween-80) did it give?
The survivor count was 1 of 6.

Source: PubChem BioAssay AID330 (DTP/NCI, 2004)
